Measured values: doi:10.1101/530642
These are yes or no findings as the source states them, for the method shown. Binding seen in cells or lysates may run through a third protein. Some results given as binding are weak or reduced against the parent protein; the word gives no strength.

Protein sequences, listed by entry. Tags and fused reporters are not part of them. Lines headed by an entry give the natural chain unless they say otherwise; changes in a name come on top. Residues count along the entry.
UniProt Q27J81, whole entry: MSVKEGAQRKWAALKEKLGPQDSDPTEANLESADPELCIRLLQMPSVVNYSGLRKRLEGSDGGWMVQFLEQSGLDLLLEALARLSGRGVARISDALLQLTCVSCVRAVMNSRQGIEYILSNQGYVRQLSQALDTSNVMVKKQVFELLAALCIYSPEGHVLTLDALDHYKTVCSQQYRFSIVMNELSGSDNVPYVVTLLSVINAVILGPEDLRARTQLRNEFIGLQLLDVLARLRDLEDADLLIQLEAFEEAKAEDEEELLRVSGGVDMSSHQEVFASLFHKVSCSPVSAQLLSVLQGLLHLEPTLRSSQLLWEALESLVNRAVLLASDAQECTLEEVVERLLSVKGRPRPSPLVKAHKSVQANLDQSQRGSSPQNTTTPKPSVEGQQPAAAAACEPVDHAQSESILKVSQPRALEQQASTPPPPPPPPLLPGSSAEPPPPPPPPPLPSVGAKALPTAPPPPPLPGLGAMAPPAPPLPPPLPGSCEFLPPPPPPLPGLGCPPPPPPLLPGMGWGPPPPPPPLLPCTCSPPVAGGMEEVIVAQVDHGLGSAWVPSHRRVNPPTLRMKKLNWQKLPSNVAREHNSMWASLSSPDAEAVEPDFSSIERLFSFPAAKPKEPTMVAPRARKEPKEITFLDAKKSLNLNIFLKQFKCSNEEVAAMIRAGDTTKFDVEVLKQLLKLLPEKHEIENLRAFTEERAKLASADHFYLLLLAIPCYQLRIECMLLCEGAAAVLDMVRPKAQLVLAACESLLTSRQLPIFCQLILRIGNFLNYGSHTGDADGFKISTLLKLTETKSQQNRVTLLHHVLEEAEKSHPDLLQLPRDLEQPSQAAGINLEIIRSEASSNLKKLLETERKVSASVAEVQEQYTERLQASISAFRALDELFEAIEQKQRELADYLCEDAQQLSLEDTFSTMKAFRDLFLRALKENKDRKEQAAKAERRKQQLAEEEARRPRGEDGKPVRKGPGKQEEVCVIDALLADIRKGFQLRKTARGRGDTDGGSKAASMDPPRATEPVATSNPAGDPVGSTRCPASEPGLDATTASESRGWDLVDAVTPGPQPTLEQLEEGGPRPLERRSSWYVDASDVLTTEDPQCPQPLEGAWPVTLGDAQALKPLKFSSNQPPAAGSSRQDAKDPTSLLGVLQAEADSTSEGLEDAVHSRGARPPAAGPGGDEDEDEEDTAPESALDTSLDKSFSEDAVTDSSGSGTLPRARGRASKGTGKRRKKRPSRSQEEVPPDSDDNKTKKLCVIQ
UniProt Q27J81, 1-547: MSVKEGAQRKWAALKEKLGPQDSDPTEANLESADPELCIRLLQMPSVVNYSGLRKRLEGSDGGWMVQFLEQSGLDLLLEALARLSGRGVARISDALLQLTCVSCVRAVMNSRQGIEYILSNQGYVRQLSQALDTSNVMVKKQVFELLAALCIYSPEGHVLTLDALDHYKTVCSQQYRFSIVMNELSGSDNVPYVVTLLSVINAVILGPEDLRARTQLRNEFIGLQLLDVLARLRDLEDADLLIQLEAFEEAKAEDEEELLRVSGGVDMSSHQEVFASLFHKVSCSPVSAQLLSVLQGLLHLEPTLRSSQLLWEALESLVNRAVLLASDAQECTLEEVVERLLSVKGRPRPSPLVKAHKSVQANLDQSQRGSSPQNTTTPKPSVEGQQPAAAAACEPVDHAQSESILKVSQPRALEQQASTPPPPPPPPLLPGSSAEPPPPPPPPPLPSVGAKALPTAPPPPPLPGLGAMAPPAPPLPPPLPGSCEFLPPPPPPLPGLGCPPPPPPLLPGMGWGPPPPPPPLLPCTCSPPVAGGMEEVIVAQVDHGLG
UniProt O60610, whole entry: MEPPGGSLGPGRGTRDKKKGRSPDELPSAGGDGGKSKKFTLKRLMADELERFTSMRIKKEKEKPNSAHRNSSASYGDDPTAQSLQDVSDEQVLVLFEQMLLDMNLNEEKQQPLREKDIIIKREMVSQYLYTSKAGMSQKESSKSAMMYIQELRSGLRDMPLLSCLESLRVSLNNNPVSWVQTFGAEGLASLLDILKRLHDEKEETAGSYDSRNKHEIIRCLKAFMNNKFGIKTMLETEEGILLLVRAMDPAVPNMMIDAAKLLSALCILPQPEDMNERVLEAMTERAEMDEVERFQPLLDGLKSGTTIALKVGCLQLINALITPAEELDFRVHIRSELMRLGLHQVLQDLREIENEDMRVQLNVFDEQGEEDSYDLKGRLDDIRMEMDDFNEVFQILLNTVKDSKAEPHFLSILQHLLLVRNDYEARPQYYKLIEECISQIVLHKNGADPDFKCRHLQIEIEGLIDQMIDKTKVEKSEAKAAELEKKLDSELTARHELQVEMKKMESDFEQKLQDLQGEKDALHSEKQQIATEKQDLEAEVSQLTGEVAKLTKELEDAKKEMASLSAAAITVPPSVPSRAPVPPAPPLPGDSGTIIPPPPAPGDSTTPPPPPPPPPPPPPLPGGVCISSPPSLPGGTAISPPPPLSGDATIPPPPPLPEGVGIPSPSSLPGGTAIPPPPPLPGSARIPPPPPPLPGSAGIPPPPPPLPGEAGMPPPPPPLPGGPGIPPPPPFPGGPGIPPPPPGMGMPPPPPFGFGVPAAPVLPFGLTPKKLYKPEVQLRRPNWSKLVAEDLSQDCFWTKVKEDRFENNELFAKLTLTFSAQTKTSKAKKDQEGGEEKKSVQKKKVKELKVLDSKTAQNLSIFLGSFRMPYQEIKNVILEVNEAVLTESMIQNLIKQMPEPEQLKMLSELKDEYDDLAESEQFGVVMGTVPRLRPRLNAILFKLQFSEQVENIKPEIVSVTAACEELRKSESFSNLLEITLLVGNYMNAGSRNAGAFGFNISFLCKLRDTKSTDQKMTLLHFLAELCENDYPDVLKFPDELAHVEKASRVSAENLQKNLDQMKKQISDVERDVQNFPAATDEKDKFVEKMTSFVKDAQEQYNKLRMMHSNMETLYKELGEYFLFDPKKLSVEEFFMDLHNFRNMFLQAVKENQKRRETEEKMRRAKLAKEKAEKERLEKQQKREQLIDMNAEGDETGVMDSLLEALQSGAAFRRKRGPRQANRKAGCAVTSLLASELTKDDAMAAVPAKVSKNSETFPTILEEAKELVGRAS

Columns and labels:
Test in all cases: co-IP
[1] = biological target: GFP-tagged INF2 N-fragment (wild-type), amino acids 1-547 of the human INF2-CAAX isoform (human) (UniProt Q27J81)
[2] = biological target: GFP-tagged full-length INF2-CAAX (wild-type), amino acids 1-1249 (human) (UniProt Q27J81)
[3] = biological target: non-cleavable GFP-tagged full-length INF2-CAAX R218Q (Δ543-548) (human) (UniProt Q27J81)
[4] = biological target: GFP-tagged INF2 N-fragment R218Q, amino acids 1-547 of the human INF2-CAAX isoform (human) (UniProt Q27J81)
[5] = biological target: non-cleavable GFP-tagged full-length INF2-CAAX (Δ543-548) (human) (UniProt Q27J81)
[6] = biological target: GFP-tagged full-length INF2-CAAX R218Q, amino acids 1-1249 (human) (UniProt Q27J81)

mDIA1 (DIAPH1) (from UniProt O60610 1-1272)
binding [1]: binds | binding [2]: binds | binding [3]: no binding | binding [4]: binds | binding [5]: no binding | binding [6]: binds
